Results on six molecules are retold here after paper PMC12560929.

These are yes or no findings as the source states them, for the method shown. Binding seen in cells or lysates may run through a third protein. A yes stands for co-enrichment or nearness to the bait. Other partners may have been found.

B1: RNA helicase (DDX41) (protein, UniProt A0A7H1RFY2 1-614)
chain: METDNRPKKRSHGEDERSGSEGTEDDDYVPYIPVKIRKQQIVQKMLRLRGKAVDEEQKDSGEEQRDEDEGLGPRSNVSLLDQHQHLKEKAEARKESAKEKQLKEEEKILESVAEGRALMSVKEMAKGIIYDDPIKTSWKPPRYILNMPGTRHERVRKKFHILVDGDGIPAPIKSFREMKFPPAILKGLKKKGIAHPTPIQIQGIPTVLSGRDMIGIAFTGSGKTLVFTLPITMFALEQEKRLPFFKREGPYGLIICPSRELARQTHSIIEYYCKLLEEEGAPQLRTALCIGGMSVKEQMEVVKHGVHMMVATPGRLMDLLQKKMVSLDICRYLALDEADRMIDMGFEEDIRTIFSYFKGQRQTLLFSATMPKKIQNFAKSALVKPITINVGRAGAASLDVIQEVEYVKEEAKMVYLLECLQKTPPPVLLFAEKKADVDAIHEYLLLKGVEAVAIHGGKDQEERTKAIEAFKEGKKDVLVATDVASKGLDFPAIQHVVNYDMPEEIENYVHRIGRTGRSGKTGIATTFINKGCDESVLMDLKALLVEAKQKVPPVLQVLQTGDETMLDIGGERGCTFCGGLGHRITDCPKLEAMQTKQVTNIGRKDYLAHSSMDF
B2: Nonspecific cytotoxic cell receptor protein 1 (protein, UniProt A0A0K2DRS2 1-233)
chain: MSAAEWKKRCEAEWSLQVCPMPDSLDWKVVCEAKPLGRNLLKNPAPLGLSKDTPPPEPKLSEVPTHGPPRFQPDGDFSGWITSTEVLPYDTSGIPAGAAICALPQYSWFSMEQVVDLKAEGLWDELLDDFQPEIVIQDWYEERQLHQSIYQLHVKLLGADKSTVISEHTVNPTEDLSTYSHTWKEVSHVFSGYGPGVRYVYFLHRLKNKFMMEFYPTLFTGSAVIAKPTKTSS
B3: Natural resistance-associated macrophage protein (protein, UniProt E2IFW3 1-559)
chain: MKGRKNEKSKLKDSPQENGVQTNQYSSISPPASPVAQDEPFSTYFEDKVAIPENGNQVFSFRKLWAFTGPGFLMSIAYLDPGNIESDLQSGAKAGFKLLWVLLGATIIGLLLQRLAARLGVVTGMHLAEVCNRQYPIIPRIILWLMVELAIIGSDMQEVIGCAIALNLLSVGRIPLWGGVLITITDTFVFLFLDKYGLRKLEAFFGFLITVMALSFGYEYVLVKPNQGELLKGMFIPYCSDCGPVQMEQAVGIVGAVIMPHNIYLHSALVKSRDVNRANKREVKEANKYFFIESCVALFVSFLINVFVVAVFAQAFYNKTNMEVNALCNATGSPHTDLFPLNNGTLEVDIYKGGVVLGCFFGPAALYIWAIGILAAGQSSTMTGTYSGQFVMEGFLNLRWSRFARVLLTRSIAITPTLLVAIFQDVQHLTGMNDFLNVLQSMQLPFALIPILTFTSLTSIMNDFANGLVWKISGGIVILVVCAINMYFVVIYVTSLNSVLLYVLAALLSVAYLCFVGYLAWHCLVALGVSCLDFGSRMGLSQHTDMYLMNDMDTGSLSG
B4: Interferon-induced GTP-binding protein Mx (protein, UniProt Q6TN15 1-626)
chain: MNTLNQQYEEKVRPCIDLIDSLRSLGVEKDLALPAIAVIGDQSSGKSSVLEALSGVALPRGSGIVTRCPLELKMKRKKEGEEWYGKISYQNHEEEIEDPADVEKKIREAQDEMAGVGVGISDDLISLEIGSPGVPDLTLIDLPGIARVAVKGQPENIGDQIKRLIQTFITKQETISLVVVPCNVDIATTEALNMAQRVDPDGERTLGILTKPDLVDKGTEDTVVEIVHNEVIHLKKGYMIVKCRGQKEITERVSLTEAIERETAFFREHVYFHTLYNEGHATVPKLAEKLTLELVHHIEKSLPRLEEQIEEKLTQTRAELERYGNGPPSDAAEKLIFLIDKVTAFTQDAISLTTGEELKCGDRLNVFSMLRREFGQWNAHLSRSGEIFNKKIEKEVEEYEERYRGRELPGFINYKTFEVMVKEQIKQLEEPAVKRLKDVGDAVRKLLVQLAQSSFTGFPNLVKIAKARIEAIKQEKESTAESTLRTQFKMELLVYSQDRTYSSSLSDRKTEEDEEEDKRKVKTFHKERSILYRMDNHATLQELMLHLKSYYKIASQRLADQIPLVIRYQMLQESASQLHREMMQVLQDKENLEFLLKEDSDIGSKRAALQSRLKRLMKARAYLVEF
B5: 60 kDa heat shock protein, mitochondrial (protein, UniProt A0A3G1HT24 1-576)
chain: MFRLPTVMRQVRPVCRALAPHLTRAYAKDVKFGADARALMLQGVDLLADTVAVTMGPKGRTVIIEQSWGSPKVTKDGVTVAKSIELKDKYKNIGARLVQDVANNTNEEAGDGTTTATVLARAIAKEGFDTISKGANPVEIRRGVMAAVDTIISELKKLSKPVTTPEEIAQVATISANGDVEIGNIISNAMKRVGRKGVITVKDGKTLHDELEIIEGMKFDRGYISPYFINTAKGQKCEFQDAYLLLSEKKISSVQSIVPALEIANQHRKPLVIVAEDVDGEALSTLVLNRLKVGLQVVAVKAPGFGDNRKNQLRDMAIATGGTVFGDDAVGLALEDIQAHDFGKVGEVQITKDDTLLLKGGGSPAEVEKRAAEIMEQLESTTSDYEKEKLNERLAKLSDGVAVLKIGGTSDVEVNEKKDRVTDALNATRAAVEEGIVPGGGCALLRCIPALDTIKTVNADQTIGVDIIRRALRIPAMTIAKNAGVEGSLVVEKILQGPPEIGYDAMQGEYVNMVEKGIIDPTKVVRTALLDAAGVASLLSTAEAVVTEIPKEEKEMPGGGMGGMGGMGGMGGGMGF
B6: Cytochrome c oxidase subunit 2 (protein, UniProt F8UZB6 1-230)
chain: MAHPSQLGFQDAASPVMEELLHFHDHALMIVFLISTLVLYIIVAMVSTKLTNKYILDSQEIEIIWTVLPAVILILIALPSLRILYLMDEVNDPHLTIKAMGHQWYWSYEYTDYEDLGFDSYMIPTQDLTPGQFRLLEADHRMVIPVESPIRVLVSAEDVLHSWAVPALGVKMDAVPGRLNQTAFIASRPGVFYGQCSEICGANHSFMPIVVEAVPLEHFENWSSLMLEDA

The target in this assay is GST-SPX fusion protein (Siniperca chuatsi spexin, neuropeptide Q) (Siniperca chuatsi). Put plainly: affinity purification with mass spectrometry; GST pull-down: 500 ug GST-SPX (control: GST alone) on magnetic beads, 2 h at room temperature; S. chuatsi liver total protein extract added, made up to 1 mL with IP dilution buffer, 4 °C for 1 min; eluted at 95 °C; SDS-PAGE, silver staining, bands excised, LC-MS/MS (MaxQuant against UniProt; at least 2 unique peptides per protein); only the target purified.
On to B1, for which the binding result is recorded as “binds”.
The result for B2 reads “binds”; that for B3, “binds”.
In the case of B4, the binding entry is recorded as “binds”.
The result for B5 reads “binds”; that for B6, “binds”.
